This is an account of results in article PMC10288633.

Amino acid sequences for entries named in this document (tags omitted).
UniProt Q9UBB5: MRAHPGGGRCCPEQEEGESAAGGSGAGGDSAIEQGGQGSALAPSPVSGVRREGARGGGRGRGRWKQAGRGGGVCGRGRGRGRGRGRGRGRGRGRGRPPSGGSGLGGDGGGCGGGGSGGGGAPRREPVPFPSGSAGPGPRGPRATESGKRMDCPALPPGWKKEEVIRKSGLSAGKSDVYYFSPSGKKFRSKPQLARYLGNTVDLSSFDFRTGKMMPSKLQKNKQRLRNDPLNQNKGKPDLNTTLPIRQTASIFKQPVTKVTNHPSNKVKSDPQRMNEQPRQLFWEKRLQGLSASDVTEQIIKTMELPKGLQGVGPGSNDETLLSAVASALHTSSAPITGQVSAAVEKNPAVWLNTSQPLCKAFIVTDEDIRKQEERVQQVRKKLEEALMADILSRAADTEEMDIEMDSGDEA
UniProt Q9H165: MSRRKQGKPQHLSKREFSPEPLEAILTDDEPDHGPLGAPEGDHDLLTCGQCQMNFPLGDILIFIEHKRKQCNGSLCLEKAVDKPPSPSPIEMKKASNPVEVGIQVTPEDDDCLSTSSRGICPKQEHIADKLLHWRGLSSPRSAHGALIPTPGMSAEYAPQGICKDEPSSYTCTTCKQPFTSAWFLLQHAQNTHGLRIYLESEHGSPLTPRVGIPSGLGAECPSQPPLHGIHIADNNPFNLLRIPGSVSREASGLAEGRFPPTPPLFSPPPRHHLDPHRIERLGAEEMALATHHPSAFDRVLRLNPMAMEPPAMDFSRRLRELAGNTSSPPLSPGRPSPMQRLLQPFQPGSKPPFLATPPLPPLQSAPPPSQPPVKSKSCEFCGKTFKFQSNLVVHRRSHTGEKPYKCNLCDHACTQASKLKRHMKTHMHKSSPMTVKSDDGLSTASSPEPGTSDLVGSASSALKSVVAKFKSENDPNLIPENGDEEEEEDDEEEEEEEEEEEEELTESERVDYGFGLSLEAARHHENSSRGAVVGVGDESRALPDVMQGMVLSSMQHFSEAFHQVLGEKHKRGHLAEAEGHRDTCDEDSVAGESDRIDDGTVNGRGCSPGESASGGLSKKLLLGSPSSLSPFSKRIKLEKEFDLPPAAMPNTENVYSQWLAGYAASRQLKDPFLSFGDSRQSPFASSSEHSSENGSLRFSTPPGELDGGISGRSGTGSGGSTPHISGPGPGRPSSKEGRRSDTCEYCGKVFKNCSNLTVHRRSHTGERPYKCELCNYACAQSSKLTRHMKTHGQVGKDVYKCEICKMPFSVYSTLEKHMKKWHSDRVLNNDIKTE
UniProt O14744: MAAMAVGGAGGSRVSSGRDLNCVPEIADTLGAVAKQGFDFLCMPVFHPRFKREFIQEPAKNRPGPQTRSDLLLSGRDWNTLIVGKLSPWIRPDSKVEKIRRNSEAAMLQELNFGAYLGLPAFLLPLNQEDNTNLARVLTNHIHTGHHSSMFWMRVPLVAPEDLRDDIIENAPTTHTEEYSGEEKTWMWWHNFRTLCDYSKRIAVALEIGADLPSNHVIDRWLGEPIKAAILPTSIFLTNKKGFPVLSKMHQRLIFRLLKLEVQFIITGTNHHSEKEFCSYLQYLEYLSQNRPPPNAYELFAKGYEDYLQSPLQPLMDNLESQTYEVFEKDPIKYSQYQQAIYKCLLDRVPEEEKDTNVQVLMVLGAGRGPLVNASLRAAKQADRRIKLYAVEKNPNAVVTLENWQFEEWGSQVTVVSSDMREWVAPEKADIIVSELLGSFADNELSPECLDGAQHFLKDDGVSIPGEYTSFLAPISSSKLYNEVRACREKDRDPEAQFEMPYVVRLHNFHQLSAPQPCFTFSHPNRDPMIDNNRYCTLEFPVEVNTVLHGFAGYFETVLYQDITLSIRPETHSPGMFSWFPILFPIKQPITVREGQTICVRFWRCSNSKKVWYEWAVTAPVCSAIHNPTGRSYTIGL

Assay [1] addresses endogenous MBD2 (human (endogenous in HUDEP-2)) (UniProt Q9UBB5). In words: co-IP; reciprocal immunoprecipitation of endogenous MBD2, BCL11A and PRMT5 in parental HUDEP-2 cells, western blot. For orientation: In western blotting, separated proteins are transferred to a membrane and probed.
Assay [2] addresses BCL11A (human (endogenous in HUDEP-2)) (UniProt Q9H165). Described as above.
The next assay concerns the target MBD2a-TAPtag (UniProt Q9UBB5). In words: co-IP; Strep-Tactin immunoprecipitation of MBD2a-TAPtag or MBD2b-TAPtag from HUDEP-2 cells, western blot for BCL11A and PRMT5.

Results are given in words; binding and its absence hold for the method and conditions named. In cells and extracts the contact can be indirect. Some results given as binding are weak or reduced against the parent protein; the word gives no strength.

“PRMT5 (from UniProt O14744 1-637) (enzyme)”: the binding result (in assay [1]; in assay [2]; with MBD2a-TAPtag) was “binds” throughout.

As to BCL11A (from UniProt Q9H165 1-835), the binding result (in assay [1]; in the assay with MBD2a-TAPtag) was “binds” in each case.
